Patent US20070275887A1, “Method of Inhibiting Secretase Activity” (priority 2003, published 2007)
No constants are given. Whether binding was seen depends on the method and setting. For part of these data: Binding seen in cells or lysates may run through a third protein. Some results given as binding are weak or reduced against the parent protein; the word gives no strength. For part of these data: Sequences can lack the tags named with a protein. One block for each molecule: values may come before it.

By UniProt entry, the sequences of proteins in these tests, tags left out. Where a name states a change or a piece, a line headed by the entry shows the natural chain unless it says otherwise.
UniProt Q86TM6: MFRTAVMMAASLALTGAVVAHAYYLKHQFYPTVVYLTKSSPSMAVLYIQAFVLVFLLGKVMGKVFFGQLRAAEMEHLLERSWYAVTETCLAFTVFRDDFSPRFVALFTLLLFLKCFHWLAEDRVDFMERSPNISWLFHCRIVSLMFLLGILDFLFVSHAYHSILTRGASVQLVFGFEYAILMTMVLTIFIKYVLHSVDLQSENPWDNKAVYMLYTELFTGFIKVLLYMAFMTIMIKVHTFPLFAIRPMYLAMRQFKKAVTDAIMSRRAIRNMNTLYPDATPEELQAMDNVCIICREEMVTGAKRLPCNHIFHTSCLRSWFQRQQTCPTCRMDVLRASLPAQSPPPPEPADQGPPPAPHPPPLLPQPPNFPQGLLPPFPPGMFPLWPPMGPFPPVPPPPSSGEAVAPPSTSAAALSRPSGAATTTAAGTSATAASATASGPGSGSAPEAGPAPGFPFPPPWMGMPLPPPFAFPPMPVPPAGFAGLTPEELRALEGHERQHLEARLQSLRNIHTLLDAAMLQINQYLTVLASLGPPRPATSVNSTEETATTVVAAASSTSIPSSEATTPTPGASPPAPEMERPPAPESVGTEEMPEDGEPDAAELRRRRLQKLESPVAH

Experiments:
[1] = target: T1, Flag/Herp (pcDNA3-Flag/Herp with Herp from 1 bp to 1176 bp) (human) (UniProt Q15011); assay: co-immunoprecipitation and Western blotting from co-transfected HEK293 cells
T1 sequence: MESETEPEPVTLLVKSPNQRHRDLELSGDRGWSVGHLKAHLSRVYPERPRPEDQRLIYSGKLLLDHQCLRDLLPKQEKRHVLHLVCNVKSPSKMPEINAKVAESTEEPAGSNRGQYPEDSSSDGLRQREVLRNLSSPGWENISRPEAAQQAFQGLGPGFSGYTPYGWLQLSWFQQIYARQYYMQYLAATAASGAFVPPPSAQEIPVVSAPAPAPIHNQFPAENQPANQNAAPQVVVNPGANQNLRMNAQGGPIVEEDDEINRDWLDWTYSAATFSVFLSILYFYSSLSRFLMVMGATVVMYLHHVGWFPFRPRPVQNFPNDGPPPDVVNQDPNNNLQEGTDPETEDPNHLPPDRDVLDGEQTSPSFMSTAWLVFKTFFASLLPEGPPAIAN

[2] = target: T2, homocysteine-inducible endoplasmic reticulum stress-inducible ubiquitin-like domain member 1 (Herp), clone from the human cartilage cDNA library in pACT2 (human) (UniProt Q15011); assay: yeast two-hybrid screen of a human cartilage cDNA library, beta-galactosidase filter assay
T2 sequence: T1 sequence

FLAG-tagged synoviolin = target: T3, FLAG-tagged synoviolin (human, UniProt Q86TM6 1-617); assay: co-immunoprecipitation (anti-HA or anti-FLAG) and Western blotting from HEK293T cells
T3 construct: not shown: FLAG tag
Experimental: An HA tag was attached to the N-terminal of this gene, which was inserted into a pcDNA3 vector. Next, Ha-tagged Herp, Herp(-bind) and a blank vector were each strongly expressed together with FLAG-tagged synoviolin in HEK293T cells. After 24 hours whole cell extract (WCE) was extracted, expression of each protein was confirmed, and immunoprecipitation was performed with anti-HA antibodies or anti-FLAG antibodies.

binding [1]: binds
Molecule: HA/Syno (pcDNA3-HA/Syno with synoviolin from 1 bp to 1854 bp) (from UniProt Q86TM6 1-617)

binding [2]: binds
Molecule: synoviolin Bait (pGBT9-Syno dTM or pGBT9-Syno Ring) (from UniProt Q86TM6 236-617)

binding (FLAG-tagged synoviolin): binds
B1: HA-tagged Herp (protein, not shown: small tags and cut ends)
chain: T1 sequence
